Drawing on paper PMC7456882, this text covers binding for two molecules.

Sequences of proteins named here, by UniProt entry; tags and fusion partners are left off.
UniProt B8XX90: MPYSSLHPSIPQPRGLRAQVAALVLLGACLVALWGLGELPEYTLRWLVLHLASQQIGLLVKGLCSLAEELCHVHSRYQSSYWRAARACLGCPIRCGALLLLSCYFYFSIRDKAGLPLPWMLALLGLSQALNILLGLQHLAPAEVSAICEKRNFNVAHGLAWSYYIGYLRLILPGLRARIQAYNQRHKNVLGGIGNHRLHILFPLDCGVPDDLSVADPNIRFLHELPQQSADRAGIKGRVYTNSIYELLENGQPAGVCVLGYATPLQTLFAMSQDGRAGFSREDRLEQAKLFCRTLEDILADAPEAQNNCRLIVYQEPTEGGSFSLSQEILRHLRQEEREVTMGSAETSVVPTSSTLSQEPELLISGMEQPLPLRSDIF

These are yes or no findings as the source states them, for the method shown. In cells and extracts the contact can be indirect. Some results given as binding are weak or reduced against the parent protein; the word gives no strength.

One experiment has as its target T1, porcine cGAS (porcine) (UniProt I3LM39).
T1 sequence: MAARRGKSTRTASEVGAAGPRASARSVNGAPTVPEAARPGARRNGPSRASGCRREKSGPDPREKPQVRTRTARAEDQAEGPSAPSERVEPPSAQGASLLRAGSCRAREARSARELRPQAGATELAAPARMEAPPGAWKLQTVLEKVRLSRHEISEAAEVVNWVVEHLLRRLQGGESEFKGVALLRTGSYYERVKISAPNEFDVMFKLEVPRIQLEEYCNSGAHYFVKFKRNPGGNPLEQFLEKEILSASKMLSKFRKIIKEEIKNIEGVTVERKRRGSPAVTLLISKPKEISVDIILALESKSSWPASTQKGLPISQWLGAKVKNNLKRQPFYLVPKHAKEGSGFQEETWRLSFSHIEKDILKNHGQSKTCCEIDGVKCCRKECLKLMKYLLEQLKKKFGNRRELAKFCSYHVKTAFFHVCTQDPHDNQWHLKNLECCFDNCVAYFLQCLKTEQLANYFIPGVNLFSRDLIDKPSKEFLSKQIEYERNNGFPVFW
In words: co-IP; 293T cells co-transfected with pcGAS and pSTING without or with 0.5 or 1.0 ug porcine IFI16; RIPA lysate; IP with anti-FLAG antibody; Western blot. (In general: In western blotting, separated proteins are transferred to a membrane and probed.)

Experiment [1] addresses porcine STING (GFP-STING fusion protein) (porcine) (UniProt B8XX90). As to the kind of experiment: co-IP; 293T cells co-transfected with pcGAS and pSTING without or with 0.5 or 1.0 ug porcine IFI16; RIPA lysate; IP with anti-GFP antibody; Western blot.
Experiment [2] shares this target. As to the kind of experiment: co-IP; 293T cells co-transfected with pcGAS and pSTING (0.5 ug each) for 48 h; RIPA lysate; IP with anti-GFP antibody overnight at 4 C, Protein A/G agarose; Western blot.

With “porcine STING (GFP-STING fusion protein) (from UniProt B8XX90 1-378)”, the binding entry in the experiment with porcine cGAS (porcine) is “binds”.

B1: porcine cGAS (protein, UniProt I3LM39 1-495)
chain: MAARRGKSTRTASEVGAAGPRASARSVNGAPTVPEAARPGARRNGPSRASGCRREKSGPDPREKPQVRTRTARAEDQAEGPSAPSERVEPPSAQGASLLRAGSCRAREARSARELRPQAGATELAAPARMEAPPGAWKLQTVLEKVRLSRHEISEAAEVVNWVVEHLLRRLQGGESEFKGVALLRTGSYYERVKISAPNEFDVMFKLEVPRIQLEEYCNSGAHYFVKFKRNPGGNPLEQFLEKEILSASKMLSKFRKIIKEEIKNIEGVTVERKRRGSPAVTLLISKPKEISVDIILALESKSSWPASTQKGLPISQWLGAKVKNNLKRQPFYLVPKHAKEGSGFQEETWRLSFSHIEKDILKNHGQSKTCCEIDGVKCCRKECLKLMKYLLEQLKKKFGNRRELAKFCSYHVKTAFFHVCTQDPHDNQWHLKNLECCFDNCVAYFLQCLKTEQLANYFIPGVNLFSRDLIDKPSKEFLSKQIEYERNNGFPVFW
In the case of B1, the binding entry in experiment [1] and in experiment [2] was “binds” each time.
